{"source": "patent US20170079281A1", "about": "“CITRUS-BASED ANTIMICROBIAL COMPOSITION” (priority 2015, published 2017)", "experiment": "Sensory analysis of strawberry fillings, 9-points hedonic scale test", "settings": "0.2% Composition A or 0.1% sodium benzoate, 30 persons", "note": "Marks after values point to notes of the source that are not given here."}
{"smiles": "O=C([O-])c1ccccc1.[Na+]", "note": "[Sodium benzoate, sodium benzoate]", "values": [{"measurement": "Sensory properties: Color", "value": "6.81 ± 1.27^a"}, {"measurement": "Sensory properties: Global appreciation", "value": "6.72 ± 1.06^a"}, {"measurement": "Sensory properties: Texture", "value": "6.68 ± 1.41^a"}]}
